Source: patent US20210253679A1 (NATIONAL RESEARCH COUNCIL OF CANADA, published 2021)
No constants are given. Whether binding was seen depends on the method and setting. Some results given as binding are weak or reduced against the parent protein; the word gives no strength.

Chains of the proteins cited; added tags and fusions are not shown. Residues count along the entry.
UniProt P02768, residues 213-409: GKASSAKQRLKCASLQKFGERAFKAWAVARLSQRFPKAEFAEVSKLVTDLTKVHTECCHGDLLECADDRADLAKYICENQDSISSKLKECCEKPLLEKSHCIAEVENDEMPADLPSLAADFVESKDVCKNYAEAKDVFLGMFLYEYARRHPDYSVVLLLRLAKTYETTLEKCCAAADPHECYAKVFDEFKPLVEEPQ

How the values were obtained:
[1] = molecular target: T1, HSA domain 2 (DII) (human, UniProt P02768 213-409); test: SPR, 100 nM VHH over HSA domain surfaces
T1 construct: domain: DII

[2] = molecular target: T1, HSA domain 2 (DII); test: SPR, 100 nM VHH over an amine-coupled DII surface
[3] = molecular target: T1, HSA domain 2 (DII); test: SPR over HSA domain surfaces

Measured: binding

B1: R28 sdAb (VHH)
VHH: QVQLVESGGGLVQAGGSLRLSCVASGRTFIAYAMGWFRQAPGKEREFVAAITNFAGGTTYYADSVKGRFTISRDNAKTTVYLQMNSLKPEDTALYYCAADRSAQTMRQVRPVLPYWGQGTQVTVSS
notes: also called R28 VHH
binds: [1] | [2] | [3]

B2: M79 sdAb (VHH)
VHH: QVKLEESGGGLVQAGGSLKLSCAASGSTFSSSSVGWYRQAPGQQRELVAAITSGGSTNTADSVKGRFTMSRDNAKNTVYLQMRDLKPEDTAVYYCNVAGRNWVPISRYSPGPYWGQGTQVTVSS
notes: also called M79 VHH
binds: [1] | [2] | [3]

B3: R11 sdAb (VHH)
VHH: QVKLEESGGGLVQAGGSLRLSCVGPGFLLRSNTMGWYRQAPGKERELVAFIRPSGLTNYNDAVQGRFTISRDNAKNTVYLQMNALKPEDTAVYYCHTRPPFQRDSWGQGTQVTVSS
notes: also called R11 VHH
binds: [1] | [2] | [3]
